Counter-ions that a name gives are not always drawn. Some of the results follow. Hit calls seldom repeat between salt and free forms of one compound.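 Kinases, fused to nanoluciferase, were expressed in K562 cells; luminescence was measured every 4 h from 2 to 18 h as percent of control (DMSO = 100%, positive control = 0%). A time point is decreased if signal falls significantly (2 sigma). Hits were called by the authors by a rule that is not shown; the count of time points alone does not decide it.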
Assays:
Assay in all cases: kinase-Nluc reporter destabilization hit call (1 = scored as downregulated) (binary); higher = compound decreases kinase abundance
Details in all cases: K562; 2-18 h
EGFR = EGFR (UniProt P00533)
EGFR_G719S = EGFR_G719S (UniProt P00533)
EGFR_G719S_T790M = EGFR_G719S_T790M (UniProt P00533)
EGFR_L718V = EGFR_L718V (UniProt P00533)
EGFR_L858R = EGFR_L858R (UniProt P00533)
EGFR_L861Q = EGFR_L861Q (UniProt P00533)
EGFR_T790M = EGFR_T790M (UniProt P00533)
EPHA2 = EPHA2 (UniProt P29317)
ERBB3 = ERBB3 (UniProt P21860)
[1] = biological target: ERBB4_R711C (clone: ERBB4_mut) (UniProt Q15303)
ERN1 = ERN1 (UniProt O75460)
FGFR1 = FGFR1 (UniProt P11362)
FGFR2 = FGFR2 (UniProt P21802)
FGFR3 = FGFR3 (UniProt P22607)
FGR = FGR (UniProt P09769)
FLT3 = FLT3 (UniProt P36888)
FYN = FYN (UniProt P06241)
GSK3A = GSK3A (UniProt P49840)
HER2 = HER2 (UniProt P04626)
INSRR = INSRR (UniProt P14616)

Protein sequences, listed by entry. Tags and fused reporters are not part of them. Lines headed by an entry give the natural chain unless they say otherwise; changes in a name come on top.
UniProt P29317, whole entry: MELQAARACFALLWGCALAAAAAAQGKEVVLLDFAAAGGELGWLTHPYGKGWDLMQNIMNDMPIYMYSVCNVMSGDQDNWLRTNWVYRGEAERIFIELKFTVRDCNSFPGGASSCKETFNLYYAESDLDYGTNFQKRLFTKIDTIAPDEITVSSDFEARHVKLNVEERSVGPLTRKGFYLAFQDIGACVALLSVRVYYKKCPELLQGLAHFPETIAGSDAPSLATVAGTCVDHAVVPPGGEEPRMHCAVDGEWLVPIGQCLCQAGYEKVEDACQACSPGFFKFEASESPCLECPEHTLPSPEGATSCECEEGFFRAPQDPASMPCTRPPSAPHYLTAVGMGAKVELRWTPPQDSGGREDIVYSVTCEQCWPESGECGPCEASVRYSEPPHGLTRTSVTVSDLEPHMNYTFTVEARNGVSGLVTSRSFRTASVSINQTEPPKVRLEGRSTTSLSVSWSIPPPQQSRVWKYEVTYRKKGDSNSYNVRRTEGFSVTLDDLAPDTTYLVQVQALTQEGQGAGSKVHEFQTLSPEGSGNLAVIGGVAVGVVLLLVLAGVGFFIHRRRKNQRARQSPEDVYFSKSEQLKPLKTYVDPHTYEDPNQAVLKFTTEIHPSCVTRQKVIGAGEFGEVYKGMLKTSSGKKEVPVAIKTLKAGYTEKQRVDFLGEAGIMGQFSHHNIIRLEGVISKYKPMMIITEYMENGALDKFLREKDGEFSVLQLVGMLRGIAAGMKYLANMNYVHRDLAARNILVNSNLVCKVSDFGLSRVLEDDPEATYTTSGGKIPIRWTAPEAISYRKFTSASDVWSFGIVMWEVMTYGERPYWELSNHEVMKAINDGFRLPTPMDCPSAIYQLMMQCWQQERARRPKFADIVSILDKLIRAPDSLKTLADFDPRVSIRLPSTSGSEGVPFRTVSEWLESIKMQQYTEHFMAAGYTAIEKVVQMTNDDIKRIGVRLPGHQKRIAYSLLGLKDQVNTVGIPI
UniProt P21860, whole entry: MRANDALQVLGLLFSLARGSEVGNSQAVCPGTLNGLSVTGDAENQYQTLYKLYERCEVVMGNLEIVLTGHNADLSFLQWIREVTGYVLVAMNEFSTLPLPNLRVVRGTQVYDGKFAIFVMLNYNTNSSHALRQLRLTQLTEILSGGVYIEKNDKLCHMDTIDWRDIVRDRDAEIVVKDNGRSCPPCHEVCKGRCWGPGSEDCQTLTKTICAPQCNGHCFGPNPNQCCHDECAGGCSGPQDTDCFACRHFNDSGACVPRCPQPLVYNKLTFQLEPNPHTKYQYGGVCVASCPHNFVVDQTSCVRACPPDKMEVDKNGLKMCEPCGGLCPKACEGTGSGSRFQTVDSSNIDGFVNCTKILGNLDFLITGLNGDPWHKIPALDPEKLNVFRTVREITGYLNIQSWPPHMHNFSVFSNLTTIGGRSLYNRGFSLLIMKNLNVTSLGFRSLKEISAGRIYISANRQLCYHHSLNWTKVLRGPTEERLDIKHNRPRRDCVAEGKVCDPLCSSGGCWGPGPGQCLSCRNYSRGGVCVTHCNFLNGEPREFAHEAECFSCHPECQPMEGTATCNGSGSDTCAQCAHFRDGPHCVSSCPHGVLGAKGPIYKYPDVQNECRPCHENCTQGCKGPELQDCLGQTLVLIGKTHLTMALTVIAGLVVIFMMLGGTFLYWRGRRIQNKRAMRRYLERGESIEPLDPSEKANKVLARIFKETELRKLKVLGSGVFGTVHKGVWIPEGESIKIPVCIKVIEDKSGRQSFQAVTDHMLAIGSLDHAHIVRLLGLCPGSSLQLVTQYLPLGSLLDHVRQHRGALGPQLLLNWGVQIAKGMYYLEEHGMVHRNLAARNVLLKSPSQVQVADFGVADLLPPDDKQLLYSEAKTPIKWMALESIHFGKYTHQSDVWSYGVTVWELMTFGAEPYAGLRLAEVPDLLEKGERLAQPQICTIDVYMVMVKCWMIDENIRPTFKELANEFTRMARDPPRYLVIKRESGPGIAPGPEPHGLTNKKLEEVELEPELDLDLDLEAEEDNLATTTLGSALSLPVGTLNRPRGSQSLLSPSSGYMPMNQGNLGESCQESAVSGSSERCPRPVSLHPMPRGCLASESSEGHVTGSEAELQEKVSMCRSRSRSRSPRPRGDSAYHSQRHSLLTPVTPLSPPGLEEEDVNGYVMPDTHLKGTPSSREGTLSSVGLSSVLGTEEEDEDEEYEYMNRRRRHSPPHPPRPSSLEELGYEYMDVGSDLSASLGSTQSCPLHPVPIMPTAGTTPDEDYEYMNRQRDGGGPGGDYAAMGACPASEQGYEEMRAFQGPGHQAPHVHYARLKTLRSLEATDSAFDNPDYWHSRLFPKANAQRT
UniProt O75460: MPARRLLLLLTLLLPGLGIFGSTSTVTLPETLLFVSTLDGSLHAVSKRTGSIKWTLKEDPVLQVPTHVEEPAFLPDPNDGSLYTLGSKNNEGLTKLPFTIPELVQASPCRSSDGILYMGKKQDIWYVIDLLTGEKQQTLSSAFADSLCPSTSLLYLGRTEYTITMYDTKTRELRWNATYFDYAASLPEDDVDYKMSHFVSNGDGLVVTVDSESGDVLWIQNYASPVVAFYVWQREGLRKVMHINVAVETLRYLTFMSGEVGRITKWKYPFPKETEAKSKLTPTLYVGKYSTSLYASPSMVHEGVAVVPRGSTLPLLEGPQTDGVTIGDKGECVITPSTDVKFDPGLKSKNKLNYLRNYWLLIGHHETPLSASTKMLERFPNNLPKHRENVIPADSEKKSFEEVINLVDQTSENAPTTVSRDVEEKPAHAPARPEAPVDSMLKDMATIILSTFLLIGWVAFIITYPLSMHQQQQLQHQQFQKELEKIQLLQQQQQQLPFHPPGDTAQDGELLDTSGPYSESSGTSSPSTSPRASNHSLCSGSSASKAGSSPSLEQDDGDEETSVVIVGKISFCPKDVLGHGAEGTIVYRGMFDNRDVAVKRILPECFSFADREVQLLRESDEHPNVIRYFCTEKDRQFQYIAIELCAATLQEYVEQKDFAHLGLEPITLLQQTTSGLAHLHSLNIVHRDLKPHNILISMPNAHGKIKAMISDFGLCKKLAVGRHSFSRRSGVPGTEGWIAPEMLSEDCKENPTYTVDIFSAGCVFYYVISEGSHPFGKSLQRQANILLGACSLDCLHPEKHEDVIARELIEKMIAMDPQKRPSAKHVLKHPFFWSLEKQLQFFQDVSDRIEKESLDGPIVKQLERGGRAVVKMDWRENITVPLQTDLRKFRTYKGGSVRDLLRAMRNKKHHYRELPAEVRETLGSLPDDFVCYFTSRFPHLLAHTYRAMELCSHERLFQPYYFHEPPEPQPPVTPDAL
UniProt P22607, whole entry, looked up: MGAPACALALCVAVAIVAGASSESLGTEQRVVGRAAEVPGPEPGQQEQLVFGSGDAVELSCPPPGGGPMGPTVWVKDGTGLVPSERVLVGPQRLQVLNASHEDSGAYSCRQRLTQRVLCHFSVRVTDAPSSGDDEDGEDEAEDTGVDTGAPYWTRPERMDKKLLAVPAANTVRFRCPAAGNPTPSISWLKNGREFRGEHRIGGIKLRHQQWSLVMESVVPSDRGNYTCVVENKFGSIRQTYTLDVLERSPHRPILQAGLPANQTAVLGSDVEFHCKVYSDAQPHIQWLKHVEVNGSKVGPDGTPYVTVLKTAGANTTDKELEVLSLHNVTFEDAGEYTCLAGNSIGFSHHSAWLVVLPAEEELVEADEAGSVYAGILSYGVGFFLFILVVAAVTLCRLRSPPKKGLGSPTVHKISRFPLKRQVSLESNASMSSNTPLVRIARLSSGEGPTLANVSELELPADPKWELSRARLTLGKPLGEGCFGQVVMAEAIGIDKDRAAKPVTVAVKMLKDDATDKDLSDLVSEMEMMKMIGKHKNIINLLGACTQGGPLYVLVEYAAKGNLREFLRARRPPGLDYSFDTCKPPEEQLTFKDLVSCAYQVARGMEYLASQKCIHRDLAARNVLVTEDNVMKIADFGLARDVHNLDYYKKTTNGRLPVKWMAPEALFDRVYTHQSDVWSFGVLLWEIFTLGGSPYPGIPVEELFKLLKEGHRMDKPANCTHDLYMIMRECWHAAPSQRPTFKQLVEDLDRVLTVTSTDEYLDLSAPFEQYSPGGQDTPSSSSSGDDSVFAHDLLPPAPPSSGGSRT
UniProt P36888, whole entry: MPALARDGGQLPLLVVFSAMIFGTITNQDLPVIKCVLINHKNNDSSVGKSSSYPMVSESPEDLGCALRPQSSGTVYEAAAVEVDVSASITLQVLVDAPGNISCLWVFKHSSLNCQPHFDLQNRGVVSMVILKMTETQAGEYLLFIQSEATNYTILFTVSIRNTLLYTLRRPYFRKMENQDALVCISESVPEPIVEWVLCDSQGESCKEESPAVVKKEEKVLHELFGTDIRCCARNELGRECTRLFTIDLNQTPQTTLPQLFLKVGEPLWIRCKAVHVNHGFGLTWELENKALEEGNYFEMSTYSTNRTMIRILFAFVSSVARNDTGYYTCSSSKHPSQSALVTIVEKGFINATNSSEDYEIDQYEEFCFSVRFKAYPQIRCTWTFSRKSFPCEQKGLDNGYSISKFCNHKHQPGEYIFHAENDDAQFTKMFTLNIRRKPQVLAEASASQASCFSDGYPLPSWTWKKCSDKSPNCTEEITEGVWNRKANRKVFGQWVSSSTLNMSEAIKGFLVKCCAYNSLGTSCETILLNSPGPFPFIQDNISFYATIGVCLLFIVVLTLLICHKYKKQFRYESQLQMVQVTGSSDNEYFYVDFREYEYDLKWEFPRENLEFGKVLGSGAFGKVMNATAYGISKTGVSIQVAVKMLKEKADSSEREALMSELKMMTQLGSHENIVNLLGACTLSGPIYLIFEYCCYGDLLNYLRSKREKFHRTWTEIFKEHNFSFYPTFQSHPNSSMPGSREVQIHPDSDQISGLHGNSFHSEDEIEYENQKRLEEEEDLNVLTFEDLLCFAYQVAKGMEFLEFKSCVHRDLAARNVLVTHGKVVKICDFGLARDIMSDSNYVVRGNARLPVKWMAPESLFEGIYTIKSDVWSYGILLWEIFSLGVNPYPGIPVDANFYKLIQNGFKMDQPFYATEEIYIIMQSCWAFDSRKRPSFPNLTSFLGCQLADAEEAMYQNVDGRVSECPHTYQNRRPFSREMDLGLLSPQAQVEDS
UniProt P06241, whole entry, looked up: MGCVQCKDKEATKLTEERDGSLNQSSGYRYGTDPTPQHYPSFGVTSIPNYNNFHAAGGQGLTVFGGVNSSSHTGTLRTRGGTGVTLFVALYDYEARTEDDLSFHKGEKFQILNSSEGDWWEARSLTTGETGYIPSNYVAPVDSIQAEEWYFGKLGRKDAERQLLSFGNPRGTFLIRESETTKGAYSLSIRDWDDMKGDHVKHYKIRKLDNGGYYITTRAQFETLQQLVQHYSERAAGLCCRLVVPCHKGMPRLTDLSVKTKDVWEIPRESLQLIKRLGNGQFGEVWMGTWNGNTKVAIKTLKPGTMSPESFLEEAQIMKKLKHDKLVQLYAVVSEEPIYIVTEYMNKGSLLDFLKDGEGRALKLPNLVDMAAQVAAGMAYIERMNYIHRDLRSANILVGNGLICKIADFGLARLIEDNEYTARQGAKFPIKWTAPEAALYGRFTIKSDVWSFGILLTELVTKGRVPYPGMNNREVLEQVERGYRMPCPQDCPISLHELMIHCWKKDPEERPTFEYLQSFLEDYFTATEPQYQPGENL
UniProt P49840: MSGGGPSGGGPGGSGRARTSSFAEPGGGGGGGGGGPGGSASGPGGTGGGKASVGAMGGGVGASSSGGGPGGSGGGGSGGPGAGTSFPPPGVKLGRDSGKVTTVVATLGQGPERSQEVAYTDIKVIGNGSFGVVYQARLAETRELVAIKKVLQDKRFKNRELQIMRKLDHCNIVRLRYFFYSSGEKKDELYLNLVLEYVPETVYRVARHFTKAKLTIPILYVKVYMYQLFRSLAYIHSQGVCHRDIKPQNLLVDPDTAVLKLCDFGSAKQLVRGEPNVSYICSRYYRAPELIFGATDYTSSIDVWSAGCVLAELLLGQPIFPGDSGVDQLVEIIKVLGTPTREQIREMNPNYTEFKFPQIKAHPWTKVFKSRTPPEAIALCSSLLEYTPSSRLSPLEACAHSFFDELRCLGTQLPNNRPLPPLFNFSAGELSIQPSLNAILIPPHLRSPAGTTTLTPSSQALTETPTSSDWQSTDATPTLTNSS

Measured: kinase-Nluc reporter destabilization hit call

CS(=O)(=O)c1ccc(-c2cnc(N)c(C(=O)Nc3ccccc3)n2)cc1 (10 µM)
inactive: EGFR 0 | EGFR_G719S 0 | EGFR_G719S_T790M 0 | EGFR_L718V 0 | EGFR_L858R 0 | EGFR_L861Q 0 | EGFR_T790M 0 | EPHA2 = 0 | ERBB3 = 0 | [1] 0 | ERN1 = 0 | FGFR1 = 0 | FGFR2 = 0 | FGFR3 = 0 | FGR 0 | FLT3 = 0 | FYN 0 | GSK3A 0 | HER2 = 0 | INSRR 0

Cc1c(NC(=O)OC[C@@H]2COCCN2)cn2ncnc(Nc3ccc4c(cnn4Cc4cccc(F)c4)c3)c12 (10 µM)
inactive: EGFR 0 | EGFR_G719S 0 | EGFR_G719S_T790M 0 | EGFR_L718V 0 | EGFR_L858R 0 | EGFR_L861Q 0 | EGFR_T790M 0 | EPHA2 = 0 | ERBB3 = 0 | [1] 0 | ERN1 = 0 | FGFR1 = 0 | FGFR2 = 0 | FGFR3 = 0 | FGR 0 | FLT3 = 0 | FYN 0 | GSK3A 0 | HER2 = 0 | INSRR 0

Cn1cc(Nc2nccc(N3C[C@H]4CC[C@@H](C3)N4C(=O)[C@@H]3CC3(F)F)n2)cn1 (10 µM)
inactive: EGFR 0 | EGFR_G719S 0 | EGFR_G719S_T790M 0 | EGFR_L718V 0 | EGFR_L858R 0 | EGFR_L861Q 0 | EGFR_T790M 0 | EPHA2 = 0 | ERBB3 = 0 | [1] 0 | ERN1 = 0 | FGFR1 = 0 | FGFR2 = 0 | FGFR3 = 0 | FGR 0 | FLT3 = 0 | FYN 0 | GSK3A 0 | HER2 = 0 | INSRR 0

COc1cc(C(N)=O)nc(-c2cccc(C#C[C@]3(O)CCN(C)C3=O)c2)c1 (10 µM)
inactive: EGFR 0 | EGFR_G719S 0 | EGFR_G719S_T790M 0 | EGFR_L718V 0 | EGFR_L858R 0 | EGFR_L861Q 0 | EGFR_T790M 0 | EPHA2 = 0 | ERBB3 = 0 | [1] 0 | ERN1 = 0 | FGFR1 = 0 | FGFR2 = 0 | FGFR3 = 0 | FGR 0 | FLT3 = 0 | FYN 0 | GSK3A 0 | HER2 = 0 | INSRR 0

Cc1ccc(-c2c(C(=O)CF)n(CCCO)c3ncnc(N)c23)cc1 (10 µM)
inactive: EGFR 0 | EGFR_G719S 0 | EGFR_G719S_T790M 0 | EGFR_L718V 0 | EGFR_L858R 0 | EGFR_L861Q 0 | EGFR_T790M 0 | EPHA2 = 0 | ERBB3 = 0 | [1] 0 | ERN1 = 0 | FGFR1 = 0 | FGFR2 = 0 | FGFR3 = 0 | FGR 0 | FLT3 = 0 | FYN 0 | GSK3A 0 | HER2 = 0 | INSRR 0

OC(COc1ccc(C(F)(F)F)cc1)CN(Cc1ccccc1)Cc1ccccc1 (stereo not given) (2.5 µM)
inactive: EGFR 0 | EGFR_G719S 0 | EGFR_G719S_T790M 0 | EGFR_L718V 0 | EGFR_L858R 0 | EGFR_L861Q 0 | EGFR_T790M 0 | EPHA2 = 0 | ERBB3 = 0 | [1] 0 | ERN1 = 0 | FGFR1 = 0 | FGFR2 = 0 | FGFR3 = 0 | FGR 0 | FLT3 = 0 | FYN 0 | GSK3A 0 | HER2 = 0 | INSRR 0

Nc1ncnc2c1c(-c1ccc(Oc3ccccc3)cc1)nn2C1CCNCC1 [N-piperidine Ibrutinib (hydrochloride)] (10 µM)
inactive: EGFR 0 | EGFR_G719S 0 | EGFR_G719S_T790M 0 | EGFR_L718V 0 | EGFR_L858R 0 | EGFR_L861Q 0 | EGFR_T790M 0 | EPHA2 = 0 | ERBB3 = 0 | [1] 0 | ERN1 = 0 | FGFR1 = 0 | FGFR2 = 0 | FGFR3 = 0 | FGR 0 | FLT3 = 0 | FYN 0 | GSK3A 0 | HER2 = 0 | INSRR 0

Cc1cc(Nc2nc(N[C@@H](C)c3ccc(F)cc3)c(C#N)cc2F)n[nH]1 (10 µM)
inactive: EGFR 0 | EGFR_G719S 0 | EGFR_G719S_T790M 0 | EGFR_L718V 0 | EGFR_L858R 0 | EGFR_L861Q 0 | EGFR_T790M 0 | EPHA2 = 0 | [1] 0 | ERN1 = 0 | FGFR1 = 0 | FGFR2 = 0 | FGFR3 = 0 | FGR 0 | FLT3 = 0 | FYN 0 | GSK3A 0 | HER2 = 0 | INSRR 0
active: ERBB3 = 1

Among those listed so far, these have a carbonyl joined to an NH by a bond outside any ring:
CS(=O)(=O)c1ccc(-c2cnc(N)c(C(=O)Nc3ccccc3)n2)cc1 (10 µM)
inactive: EGFR 0 | EGFR_G719S 0 | EGFR_G719S_T790M 0 | EGFR_L718V 0 | EGFR_L858R 0 | EGFR_L861Q 0 | EGFR_T790M 0 | EPHA2 = 0 | ERBB3 = 0 | [1] 0 | ERN1 = 0 | FGFR1 = 0 | FGFR2 = 0 | FGFR3 = 0 | FGR 0 | FLT3 = 0 | FYN 0 | GSK3A 0 | HER2 = 0 | INSRR 0

Cc1c(NC(=O)OC[C@@H]2COCCN2)cn2ncnc(Nc3ccc4c(cnn4Cc4cccc(F)c4)c3)c12 (10 µM)
inactive: EGFR 0 | EGFR_G719S 0 | EGFR_G719S_T790M 0 | EGFR_L718V 0 | EGFR_L858R 0 | EGFR_L861Q 0 | EGFR_T790M 0 | EPHA2 = 0 | ERBB3 = 0 | [1] 0 | ERN1 = 0 | FGFR1 = 0 | FGFR2 = 0 | FGFR3 = 0 | FGR 0 | FLT3 = 0 | FYN 0 | GSK3A 0 | HER2 = 0 | INSRR 0

COc1cc(C(N)=O)nc(-c2cccc(C#C[C@]3(O)CCN(C)C3=O)c2)c1 (10 µM)
inactive: EGFR 0 | EGFR_G719S 0 | EGFR_G719S_T790M 0 | EGFR_L718V 0 | EGFR_L858R 0 | EGFR_L861Q 0 | EGFR_T790M 0 | EPHA2 = 0 | ERBB3 = 0 | [1] 0 | ERN1 = 0 | FGFR1 = 0 | FGFR2 = 0 | FGFR3 = 0 | FGR 0 | FLT3 = 0 | FYN 0 | GSK3A 0 | HER2 = 0 | INSRR 0

(listing goes on)

C/C(=C1/C(=O)Nc2ccc(NC(N)=O)cc21)c1ccc[nH]1 (10 µM)
active: [1] 1
inactive: EGFR 0 | EGFR_G719S 0 | EGFR_G719S_T790M 0 | EGFR_L718V 0 | EGFR_L858R 0 | EGFR_L861Q 0 | EGFR_T790M 0 | EPHA2 = 0 | ERBB3 = 0 | ERN1 = 0 | FGFR1 = 0 | FGFR2 = 0 | FGFR3 = 0 | FGR 0 | FLT3 = 0 | FYN 0 | GSK3A 0 | HER2 = 0 | INSRR 0

Cc1ccc(S(=O)(=O)Nc2ccccc2C=Nc2ccccc2NS(=O)(=O)c2ccc(C)cc2)cc1 (10 µM)
inactive: EGFR 0 | EGFR_G719S 0 | EGFR_G719S_T790M 0 | EGFR_L718V 0 | EGFR_L858R 0 | EGFR_L861Q 0 | EGFR_T790M 0 | EPHA2 = 0 | ERBB3 = 0 | [1] 0 | ERN1 = 0 | FGFR1 = 0 | FGFR2 = 0 | FGFR3 = 0 | FGR 0 | FLT3 = 0 | FYN 0 | GSK3A 0 | HER2 = 0 | INSRR 0

Cc1ccc(Oc2nc3cc(-c4ccc5c(ccn5C)c4)c(Cl)cc3[nH]2)cc1C(=O)O (10 µM)
inactive: EGFR 0 | EGFR_G719S 0 | EGFR_G719S_T790M 0 | EGFR_L718V 0 | EGFR_L858R 0 | EGFR_L861Q 0 | EGFR_T790M 0 | EPHA2 = 0 | ERBB3 = 0 | [1] 0 | ERN1 = 0 | FGFR1 = 0 | FGFR2 = 0 | FGFR3 = 0 | FGR 0 | FLT3 = 0 | FYN 0 | GSK3A 0 | HER2 = 0 | INSRR 0

COc1cccc(-n2c(=O)[nH]c3cc(Cl)n(-c4ccc(-c5cccc(OC)c5O)cc4)c3c2=O)c1 (2.5 µM)
inactive: EGFR 0 | EGFR_G719S 0 | EGFR_G719S_T790M 0 | EGFR_L718V 0 | EGFR_L858R 0 | EGFR_L861Q 0 | EGFR_T790M 0 | EPHA2 = 0 | ERBB3 = 0 | [1] 0 | ERN1 = 0 | FGFR1 = 0 | FGFR2 = 0 | FGFR3 = 0 | FGR 0 | FLT3 = 0 | FYN 0 | GSK3A 0 | HER2 = 0 | INSRR 0

Cc1ccc2nc(NC(=O)CSc3nc4c(c(=O)n3-c3ccccc3)SCC4)sc2c1 (2 µM)
inactive: EGFR 0 | EGFR_G719S 0 | EGFR_G719S_T790M 0 | EGFR_L718V 0 | EGFR_L858R 0 | EGFR_L861Q 0 | EGFR_T790M 0 | EPHA2 = 0 | ERBB3 = 0 | [1] 0 | ERN1 = 0 | FGFR1 = 0 | FGFR2 = 0 | FGFR3 = 0 | FGR 0 | FLT3 = 0 | FYN 0 | GSK3A 0 | HER2 = 0 | INSRR 0

c1cc2c(cc1O[C@H]1OC[C@H]3[C@@H]1CO[C@@H]3c1ccc3c(c1)OCO3)OCO2 [Sesamolin] (10 µM)
inactive: EGFR 0 | EGFR_G719S 0 | EGFR_G719S_T790M 0 | EGFR_L718V 0 | EGFR_L858R 0 | EGFR_L861Q 0 | EGFR_T790M 0 | EPHA2 = 0 | ERBB3 = 0 | [1] 0 | ERN1 = 0 | FGFR1 = 0 | FGFR2 = 0 | FGFR3 = 0 | FGR 0 | FLT3 = 0 | FYN 0 | GSK3A 0 | HER2 = 0 | INSRR 0

Cc1cc([C@H](C)Nc2ccccc2)c2oc(N3CCOCC3)cc(=O)c2c1 (10 µM)
inactive: EGFR 0 | EGFR_G719S 0 | EGFR_G719S_T790M 0 | EGFR_L718V 0 | EGFR_L858R 0 | EGFR_L861Q 0 | EGFR_T790M 0 | EPHA2 = 0 | ERBB3 = 0 | [1] 0 | ERN1 = 0 | FGFR1 = 0 | FGFR2 = 0 | FGFR3 = 0 | FGR 0 | FLT3 = 0 | FYN 0 | GSK3A 0 | HER2 = 0 | INSRR 0

COc1ccc(Cn2cc(C(=O)N=Nc3c(O)[nH]c4c(C)cccc34)nn2)cc1 [MARK4 inhibitor 1] (10 µM)
inactive: EGFR 0 | EGFR_G719S 0 | EGFR_G719S_T790M 0 | EGFR_L718V 0 | EGFR_L858R 0 | EGFR_L861Q 0 | EGFR_T790M 0 | EPHA2 = 0 | ERBB3 = 0 | [1] 0 | ERN1 = 0 | FGFR1 = 0 | FGFR2 = 0 | FGFR3 = 0 | FGR 0 | FLT3 = 0 | FYN 0 | GSK3A 0 | HER2 = 0 | INSRR 0

CNCc1ccccc1-c1csc([C@@H](C)Nc2nc(C)nc3cc(OC)c(OC)cc23)c1 (2.5 µM)
inactive: EGFR 0 | EGFR_G719S 0 | EGFR_G719S_T790M 0 | EGFR_L718V 0 | EGFR_L858R 0 | EGFR_L861Q 0 | EGFR_T790M 0 | EPHA2 = 0 | ERBB3 = 0 | [1] 0 | ERN1 = 0 | FGFR1 = 0 | FGFR2 = 0 | FGFR3 = 0 | FGR 0 | FLT3 = 0 | FYN 0 | GSK3A 0 | HER2 = 0 | INSRR 0

C[C@@H](c1ccc2nccn2c1)n1nnc2ncc(-c3cnn(C)c3)nc21 [Savolitinib] (10 µM)
inactive: EGFR 0 | EGFR_G719S 0 | EGFR_G719S_T790M 0 | EGFR_L718V 0 | EGFR_L858R 0 | EGFR_L861Q 0 | EGFR_T790M 0 | EPHA2 = 0 | ERBB3 = 0 | [1] 0 | ERN1 = 0 | FGFR1 = 0 | FGFR2 = 0 | FGFR3 = 0 | FGR 0 | FLT3 = 0 | FYN 0 | GSK3A 0 | HER2 = 0 | INSRR 0

From the supplement of paper PMC12823440, “Inhibitors supercharge kinase turnover through native proteolytic circuits” (Nature, 2025)
